By UniProt entry, the sequences of proteins in these tests, tags left out. Residues count along the entry.
UniProt Q15554, 43-542: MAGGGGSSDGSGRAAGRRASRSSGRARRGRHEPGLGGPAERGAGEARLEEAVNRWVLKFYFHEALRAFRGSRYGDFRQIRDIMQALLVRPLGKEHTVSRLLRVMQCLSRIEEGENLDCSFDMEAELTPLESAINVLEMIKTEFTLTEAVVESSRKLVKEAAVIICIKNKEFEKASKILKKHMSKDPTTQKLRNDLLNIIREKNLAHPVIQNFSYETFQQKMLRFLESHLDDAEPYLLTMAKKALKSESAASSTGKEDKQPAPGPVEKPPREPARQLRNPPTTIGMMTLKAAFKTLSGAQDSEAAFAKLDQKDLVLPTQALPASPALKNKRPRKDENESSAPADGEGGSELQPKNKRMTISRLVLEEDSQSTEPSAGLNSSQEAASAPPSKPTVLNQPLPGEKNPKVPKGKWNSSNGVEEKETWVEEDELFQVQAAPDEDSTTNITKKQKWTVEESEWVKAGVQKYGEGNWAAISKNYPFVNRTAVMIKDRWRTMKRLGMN

According to paper PMC4746636:

Target: TRF2 (UniProt Q15554)
Test: EMSA (agarose)
Settings: 5 nM DNA, 100 nM TRF2; EMSA: 5 nM DNA, 100 nM TRF2, agarose gel; AFM compaction comparison of TRF2ΔB at 300 nM protein; recombinant protein; protein details: His6; label: Alexa488 at 5' of top strand

TTAGGGTTAGGGTTAGGGATGTCCAGCAAGCCAGAATTCGGCAGCGTA (double strand) [48-bp telomeric duplex (3 TTAGGG)]
binding result: binds

Construct, isoform or probe ends are uncertain for at least one entry.
